Screening data, single-dose tests

A: 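Phenotypic screen: M. tuberculosis growth, glucose 7H9 medium, 3 days; the read-out is not stated. Concentration: 50 µM. Direction is inferred from retests: higher values go with more growth inhibition. Of about 69,000 compounds tested this way, about 760 (1.1%) reached 50% or more in at least one test.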
B: 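Whole-cell growth test on Mycobacterium tuberculosis, read after 4 days in a medium based on cholesterol and the lipid DPPC; the read-out is not stated. Compounds at 50 µM. The record gives no direction; compounds that gave an IC50 in retests scored well above the rest, so higher reads as more growth inhibition. About 69,000 compounds were tested under these conditions; 0.54% (about 370) showed 50% or more at least once.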

The filed quantity is “Percent Effect” (%).
The record does not define 0% and 100%; most values in the screen are far below 50% and negative numbers occur (in some assays of this library far below -100).
This is an unselected part of the compounds tested.
Two or more numbers in one place are separate tests of the same structure; such repeats can differ widely.

compound: CCS(=O)(=O)Cc1csc(-c2ccc(S(C)(=O)=O)cc2)n1
A: 6.458
B: 10.88

compound: Cn1cc(C(=O)Nc2cccc(F)c2)ccc1=O
A: 4.411
B: -2.166

compound: CNC(=O)NC(=O)CCSCc1cc(Cl)cc2cccnc12
A: 8.081
B: 11.07

compound: COc1ccc(-c2noc(CNC(C)Cn3cccn3)n2)c(OC)c1 (centres unmarked)
A: 16.65
B: -26.36

compound: CCC(=O)N1CCN(C(=O)NCCOc2ccc3c(c2)CCC3)CC1
A: -8.217
B: 9.371

compound: Cc1ccccc1CN(C)C(=O)CN1CCCCC1Cn1cncn1 (centres unmarked)
A: 12.97 & 24.68
B: -3.044

compound: CN1C[C@@H](F)[C@@H](OCc2nc3ccc(C#N)cc3[nH]2)C1
A: -3.146 & 17.33
B: 9.249

compound: Cc1[nH]c(-c2ccccc2)nc1C(=O)N1CCC(O)(CO)CC1
A: -1.104
B: -10.69

compound: CC(=O)N1CCc2[nH]cnc2C12CCN(C(=O)CCn1cccn1)CC2
A: -15.47 & -6.888
B: -14

compound: Cc1cc(C)n(CCCN(C)C(=O)CN2CC3(CCNCC3)OC2=O)n1
A: 7.071
B: 14.51

compound: CCOCCC(=O)N1CCCC(c2ncc[nH]2)C1 (centres unmarked)
A: -33.63 & -12.19
B: -4.424

compound: COc1ccccc1[C@@H]1CN(Cc2nccn2C)C[C@H]1C(=O)O
A: -16.69
B: -35.81

compound: Cc1ccc2c(n1)N(C)CCN(C(=O)NC1CC1)C2.O=C(O)C(F)(F)F
A: -29.16
B: -3.054

compound: CCN(CC)c1ncc2c(c1C(=O)O)CCN(C1CCOC1)C2.O=C(O)C(F)(F)F (centres unmarked)
A: -9.111 & -2.32
B: -4.971

compound: COc1cccc(C(=O)N2CCN(C(=O)CCCc3cn[nH]c3)CC2)c1
A: 2.135 & -8.802
B: 1.862

compound: O=C(C1CCCOC1)N1CCN(CC(F)(F)F)c2ccccc21 (centres unmarked)
A: 10.95
B: 12.14

compound: O=C1CCc2cc(NC(=O)N3CCCN(Cc4cccs4)CC3)ccc21
A: -14.2
B: -18.29

compound: COCC1CCN(S(=O)(=O)N2C[C@@H](C)[C@](O)(C3CC3)C2)CC1
A: 24.05 & 1.85
B: 1.12 & 0.6869

compound: Cc1nnc2n1CCN(C(=O)c1cc(Cl)c(Br)[nH]1)C2
A: -5.847
B: -7.882

compound: CCN(C)C[C@@H]1CN(S(=O)(=O)c2cccc(C#N)c2)C[C@@H]1CO
A: 23.43
B: -6.561 & -4.143

compound: COC(=O)CCC(=O)N1CCc2[nH]nc(-c3ccc(F)c(F)c3)c2C1
A: 21.44
B: -2.4

compound: CNc1ncc2c(n1)CN(CCc1ccccc1)C2=O
A: 21.85
B: -4.685

compound: COC(=O)C(CNC(=O)Nc1nncs1)Cc1ccc(O)cc1 (centres unmarked)
A: -0.2916
B: -5.916

compound: CCNc1cc2c(nn1)CCN(C(=O)c1ccc(-n3cnnc3)cc1)C2
A: 15.76
B: -1.274

compound: COC(=O)CCNC(=O)c1coc(COc2ccc(F)cc2)n1
A: 27.9
B: -4.262

compound: [H][C@]12CC[C@]([H])(CN(Cc3cscn3)C1)N(C(=O)c1cccc(COC)n1)C2
A: -48.24
B: -84

compound: CCCNCC1(O)CCCN(Cc2cccc(C)c2)C1=O (centres unmarked)
A: -25.35 & -0.7594
B: -4.19

compound: O=C(O)c1cnc(OCC2CC2)c(Br)c1
A: -18.39 & -0.02175
B: -8.338

compound: CCc1nc(C2CCCN2CCS(=O)(=O)c2ccccc2)no1 (centres unmarked)
A: -12.48
B: -4.058

The values are deposited in ChEMBL (CHEMBL3988442, “University of Dundee, Small-Polar-MMV Screening Library” (2021)).